Assay results: patent publication US20040229213A1 (INSTITUT PASTEUR, published 2004)
No constants are given. Whether binding was seen depends on the method and setting. Some binding calls cover weakened binding; strength is not graded here.

The chains behind the UniProt entries cited, without tags or fusion partners. Residues count along the entry.
HCV NS3 (strain H) (P27958, residues 1027-1657): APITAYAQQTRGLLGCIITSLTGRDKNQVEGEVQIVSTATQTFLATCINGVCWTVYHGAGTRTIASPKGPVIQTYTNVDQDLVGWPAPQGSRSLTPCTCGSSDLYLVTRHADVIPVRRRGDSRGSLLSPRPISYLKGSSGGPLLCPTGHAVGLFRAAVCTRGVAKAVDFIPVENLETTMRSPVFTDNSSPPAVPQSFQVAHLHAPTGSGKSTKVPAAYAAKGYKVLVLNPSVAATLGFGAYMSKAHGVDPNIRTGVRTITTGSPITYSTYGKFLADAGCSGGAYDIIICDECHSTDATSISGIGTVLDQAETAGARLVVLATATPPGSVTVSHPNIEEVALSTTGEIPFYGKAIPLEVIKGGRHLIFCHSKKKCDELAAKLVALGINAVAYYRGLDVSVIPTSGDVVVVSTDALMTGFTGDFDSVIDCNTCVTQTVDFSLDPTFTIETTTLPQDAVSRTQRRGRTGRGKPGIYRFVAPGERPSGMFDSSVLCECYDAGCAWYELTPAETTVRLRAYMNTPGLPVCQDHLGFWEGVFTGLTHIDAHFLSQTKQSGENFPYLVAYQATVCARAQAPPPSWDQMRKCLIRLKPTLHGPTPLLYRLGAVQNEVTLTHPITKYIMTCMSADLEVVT
HCV NS4a, full length (strain H) (P27958, residues 1658-1711): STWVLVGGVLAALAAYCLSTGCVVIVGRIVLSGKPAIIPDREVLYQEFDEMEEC
HCV NS4b (strain H) (P27958, residues 1712-1972): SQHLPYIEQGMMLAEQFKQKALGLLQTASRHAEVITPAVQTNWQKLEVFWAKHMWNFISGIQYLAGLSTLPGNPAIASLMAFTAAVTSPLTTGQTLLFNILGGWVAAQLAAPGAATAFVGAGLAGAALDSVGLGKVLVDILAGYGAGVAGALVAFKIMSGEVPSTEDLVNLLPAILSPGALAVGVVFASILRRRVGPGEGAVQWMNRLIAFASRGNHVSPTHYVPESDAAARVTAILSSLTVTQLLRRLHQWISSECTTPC

Experiments:
[1] = biological target: HCV NS4b (strain H) (hepatitis C virus strain H) (UniProt P27958); test: yeast two-hybrid matrix of selected preys against HCV baits
[2] = biological target: HCV NS4a, full length (strain H) (hepatitis C virus strain H) (UniProt P27958); test: as above

Substance	binding [1]	binding [2]
HCV NS4a, full length (strain H) (from UniProt P27958 1658-1711)	binds	–
HCV NS3 (strain H) (from UniProt P27958 1027-1657) (enzyme)	–	binds
